Structures can show the parent of a compound that is named as a salt. Some of the results follow. The calls rarely recur for the same compound in another form.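 Kinases were expressed as nanoluciferase fusions in K562 cells and luminescence was read every 4 h between 2 and 18 h as percent of control, DMSO set to 100% and a positive control to 0%. A time point counts as decreased when the signal drops significantly (2 sigma). The hit call is the authors' own, does not follow from the count of time points alone, and its rule is not shown.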
Key:
Test in all cases: kinase-Nluc reporter destabilization hit call (1 = scored as downregulated) (binary); higher = compound decreases kinase abundance
Conditions in all cases: K562; 2-18 h
[1] = target: CDK7 (UniProt P50613)
[2] = target: CDK9 (UniProt P50750)
[3] = target: CHEK2 (UniProt O96017)
[4] = target: CSF1R (UniProt P07333)
[5] = target: CSK (UniProt P41240)
[6] = target: CSNK1A1 (UniProt P48729)
[7] = target: CSNK1D (UniProt P48730)
[8] = target: DDR1 (UniProt Q08345)
[9] = target: DYRK1B (UniProt Q9Y463)
[10] = target: DYRK2 (UniProt Q92630)
[11] = target: EGFR (UniProt P00533)
[12] = target: EGFR_G719S (UniProt P00533)
[13] = target: EGFR_G719S_T790M (UniProt P00533)
[14] = target: EGFR_L718V (UniProt P00533)
[15] = target: EGFR_L858R (UniProt P00533)
[16] = target: EGFR_L861Q (UniProt P00533)
[17] = target: EGFR_T790M (UniProt P00533)
[18] = target: EPHA2 (UniProt P29317)
[19] = target: ERBB3 (UniProt P21860)
[20] = target: ERBB4_R711C (clone: ERBB4_mut) (UniProt Q15303)

The chains behind the UniProt entries cited, without tags or fusion partners. Where a name states a change or a piece, a line headed by the entry shows the natural chain unless it says otherwise.
UniProt P50613: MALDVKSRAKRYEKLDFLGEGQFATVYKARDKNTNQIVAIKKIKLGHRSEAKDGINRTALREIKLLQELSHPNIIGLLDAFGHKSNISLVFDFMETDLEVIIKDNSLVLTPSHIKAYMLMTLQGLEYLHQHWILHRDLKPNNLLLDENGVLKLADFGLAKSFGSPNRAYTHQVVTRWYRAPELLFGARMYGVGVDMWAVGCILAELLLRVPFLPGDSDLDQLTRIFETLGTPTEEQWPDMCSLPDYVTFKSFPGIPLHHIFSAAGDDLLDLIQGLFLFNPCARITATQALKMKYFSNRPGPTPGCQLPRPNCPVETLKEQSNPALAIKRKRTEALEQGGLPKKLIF
UniProt P50750, whole entry: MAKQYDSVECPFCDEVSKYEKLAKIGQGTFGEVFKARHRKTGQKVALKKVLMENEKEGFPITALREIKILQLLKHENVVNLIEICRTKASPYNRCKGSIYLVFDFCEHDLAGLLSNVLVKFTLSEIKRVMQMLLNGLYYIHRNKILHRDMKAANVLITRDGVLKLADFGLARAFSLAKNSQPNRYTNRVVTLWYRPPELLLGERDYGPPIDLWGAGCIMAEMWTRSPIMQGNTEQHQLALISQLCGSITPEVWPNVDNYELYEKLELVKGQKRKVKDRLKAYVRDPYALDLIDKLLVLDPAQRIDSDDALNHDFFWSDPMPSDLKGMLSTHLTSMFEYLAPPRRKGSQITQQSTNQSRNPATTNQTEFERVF
UniProt O96017, whole entry: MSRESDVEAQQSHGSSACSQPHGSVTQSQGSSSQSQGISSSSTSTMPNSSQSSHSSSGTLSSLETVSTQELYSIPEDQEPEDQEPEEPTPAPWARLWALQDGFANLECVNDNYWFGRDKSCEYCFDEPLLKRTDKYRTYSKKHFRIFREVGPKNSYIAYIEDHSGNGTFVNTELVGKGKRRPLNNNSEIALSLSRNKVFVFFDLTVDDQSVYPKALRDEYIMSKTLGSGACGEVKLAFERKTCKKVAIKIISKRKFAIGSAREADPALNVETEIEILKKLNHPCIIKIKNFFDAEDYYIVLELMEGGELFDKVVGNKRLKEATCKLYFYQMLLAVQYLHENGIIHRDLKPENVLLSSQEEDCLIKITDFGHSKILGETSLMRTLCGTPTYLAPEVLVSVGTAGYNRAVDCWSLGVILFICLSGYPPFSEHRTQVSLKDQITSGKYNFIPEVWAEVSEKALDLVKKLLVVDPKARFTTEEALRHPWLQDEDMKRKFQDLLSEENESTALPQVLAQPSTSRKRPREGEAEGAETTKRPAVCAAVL
UniProt P07333, whole entry: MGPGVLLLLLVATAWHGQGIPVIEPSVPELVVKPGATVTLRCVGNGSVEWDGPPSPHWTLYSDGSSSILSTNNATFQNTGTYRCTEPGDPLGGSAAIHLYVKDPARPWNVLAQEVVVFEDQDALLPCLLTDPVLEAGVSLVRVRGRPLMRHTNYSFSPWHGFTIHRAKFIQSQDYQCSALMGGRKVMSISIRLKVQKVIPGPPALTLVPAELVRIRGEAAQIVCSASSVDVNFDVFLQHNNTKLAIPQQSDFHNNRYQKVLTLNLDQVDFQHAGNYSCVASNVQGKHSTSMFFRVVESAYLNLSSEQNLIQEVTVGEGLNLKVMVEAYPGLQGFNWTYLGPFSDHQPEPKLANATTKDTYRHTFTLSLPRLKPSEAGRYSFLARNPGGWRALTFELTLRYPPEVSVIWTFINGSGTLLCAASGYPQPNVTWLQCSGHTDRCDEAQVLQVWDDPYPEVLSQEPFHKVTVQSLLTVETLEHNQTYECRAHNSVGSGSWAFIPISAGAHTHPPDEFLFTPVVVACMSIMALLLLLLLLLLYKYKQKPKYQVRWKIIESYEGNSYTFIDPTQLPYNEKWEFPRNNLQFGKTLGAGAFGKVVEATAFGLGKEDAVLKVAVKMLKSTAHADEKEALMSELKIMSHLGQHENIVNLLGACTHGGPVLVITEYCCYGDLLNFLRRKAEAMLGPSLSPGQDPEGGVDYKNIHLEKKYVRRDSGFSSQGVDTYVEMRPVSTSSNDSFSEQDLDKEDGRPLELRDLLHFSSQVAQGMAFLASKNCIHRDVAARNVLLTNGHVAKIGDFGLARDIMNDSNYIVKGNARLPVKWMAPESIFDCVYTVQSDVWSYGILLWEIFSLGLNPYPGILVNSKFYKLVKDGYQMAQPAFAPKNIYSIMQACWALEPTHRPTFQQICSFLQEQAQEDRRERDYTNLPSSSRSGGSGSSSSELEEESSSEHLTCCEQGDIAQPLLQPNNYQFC
UniProt P41240: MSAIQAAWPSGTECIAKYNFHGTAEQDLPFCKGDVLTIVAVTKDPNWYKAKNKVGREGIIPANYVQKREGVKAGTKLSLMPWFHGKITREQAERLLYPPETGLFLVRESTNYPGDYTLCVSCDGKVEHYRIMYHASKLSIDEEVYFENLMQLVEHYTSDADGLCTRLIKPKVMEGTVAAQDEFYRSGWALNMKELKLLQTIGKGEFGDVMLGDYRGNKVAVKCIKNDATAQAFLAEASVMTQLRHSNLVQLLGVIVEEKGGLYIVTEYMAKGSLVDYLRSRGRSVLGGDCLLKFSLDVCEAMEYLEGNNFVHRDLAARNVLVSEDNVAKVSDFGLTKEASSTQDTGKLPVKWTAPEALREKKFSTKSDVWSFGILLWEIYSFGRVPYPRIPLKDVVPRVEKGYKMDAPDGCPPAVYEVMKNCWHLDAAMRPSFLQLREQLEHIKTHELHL
UniProt P48729: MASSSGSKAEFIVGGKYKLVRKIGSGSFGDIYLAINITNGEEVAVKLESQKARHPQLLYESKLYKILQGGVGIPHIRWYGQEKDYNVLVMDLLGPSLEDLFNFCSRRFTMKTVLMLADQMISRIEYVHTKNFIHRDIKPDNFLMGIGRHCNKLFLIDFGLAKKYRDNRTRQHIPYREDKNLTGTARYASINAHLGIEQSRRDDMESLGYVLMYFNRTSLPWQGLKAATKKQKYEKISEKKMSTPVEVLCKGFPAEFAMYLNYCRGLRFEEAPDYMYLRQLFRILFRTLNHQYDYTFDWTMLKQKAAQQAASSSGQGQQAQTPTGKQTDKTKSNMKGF
UniProt P48730: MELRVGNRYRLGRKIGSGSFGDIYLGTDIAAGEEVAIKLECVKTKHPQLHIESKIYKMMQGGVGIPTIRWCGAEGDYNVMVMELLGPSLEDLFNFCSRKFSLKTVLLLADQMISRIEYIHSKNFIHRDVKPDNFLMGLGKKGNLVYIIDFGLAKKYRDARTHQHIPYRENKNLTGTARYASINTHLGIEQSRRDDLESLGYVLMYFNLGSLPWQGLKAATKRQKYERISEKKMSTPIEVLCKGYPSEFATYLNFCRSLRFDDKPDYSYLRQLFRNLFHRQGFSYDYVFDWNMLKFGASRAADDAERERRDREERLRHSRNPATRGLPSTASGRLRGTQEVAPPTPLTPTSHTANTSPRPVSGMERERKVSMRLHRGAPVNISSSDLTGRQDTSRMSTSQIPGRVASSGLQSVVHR
UniProt Q08345: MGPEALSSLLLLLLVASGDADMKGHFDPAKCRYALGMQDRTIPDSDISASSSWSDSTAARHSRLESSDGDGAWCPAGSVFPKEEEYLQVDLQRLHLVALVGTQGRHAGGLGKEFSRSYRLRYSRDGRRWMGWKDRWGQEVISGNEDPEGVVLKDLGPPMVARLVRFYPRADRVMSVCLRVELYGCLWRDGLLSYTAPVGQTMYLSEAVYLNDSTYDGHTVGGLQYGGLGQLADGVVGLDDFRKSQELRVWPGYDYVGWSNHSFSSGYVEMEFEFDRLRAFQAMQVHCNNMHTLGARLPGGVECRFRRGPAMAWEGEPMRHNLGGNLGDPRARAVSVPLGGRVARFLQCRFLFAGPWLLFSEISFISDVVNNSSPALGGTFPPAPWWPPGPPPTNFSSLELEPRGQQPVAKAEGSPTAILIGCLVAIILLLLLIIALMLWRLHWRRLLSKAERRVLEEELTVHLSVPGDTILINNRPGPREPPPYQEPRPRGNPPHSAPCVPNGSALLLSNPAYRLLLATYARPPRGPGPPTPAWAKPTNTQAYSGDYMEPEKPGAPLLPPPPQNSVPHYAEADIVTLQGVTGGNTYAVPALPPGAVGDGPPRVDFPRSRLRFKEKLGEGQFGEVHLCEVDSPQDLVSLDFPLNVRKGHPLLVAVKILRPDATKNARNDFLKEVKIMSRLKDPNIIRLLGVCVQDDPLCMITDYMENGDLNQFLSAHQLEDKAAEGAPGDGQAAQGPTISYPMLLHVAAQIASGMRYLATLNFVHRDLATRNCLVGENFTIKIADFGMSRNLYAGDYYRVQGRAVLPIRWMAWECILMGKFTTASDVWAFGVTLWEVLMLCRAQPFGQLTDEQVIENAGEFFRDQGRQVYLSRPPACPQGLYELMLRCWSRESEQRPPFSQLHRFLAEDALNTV
UniProt Q9Y463, whole entry, looked up: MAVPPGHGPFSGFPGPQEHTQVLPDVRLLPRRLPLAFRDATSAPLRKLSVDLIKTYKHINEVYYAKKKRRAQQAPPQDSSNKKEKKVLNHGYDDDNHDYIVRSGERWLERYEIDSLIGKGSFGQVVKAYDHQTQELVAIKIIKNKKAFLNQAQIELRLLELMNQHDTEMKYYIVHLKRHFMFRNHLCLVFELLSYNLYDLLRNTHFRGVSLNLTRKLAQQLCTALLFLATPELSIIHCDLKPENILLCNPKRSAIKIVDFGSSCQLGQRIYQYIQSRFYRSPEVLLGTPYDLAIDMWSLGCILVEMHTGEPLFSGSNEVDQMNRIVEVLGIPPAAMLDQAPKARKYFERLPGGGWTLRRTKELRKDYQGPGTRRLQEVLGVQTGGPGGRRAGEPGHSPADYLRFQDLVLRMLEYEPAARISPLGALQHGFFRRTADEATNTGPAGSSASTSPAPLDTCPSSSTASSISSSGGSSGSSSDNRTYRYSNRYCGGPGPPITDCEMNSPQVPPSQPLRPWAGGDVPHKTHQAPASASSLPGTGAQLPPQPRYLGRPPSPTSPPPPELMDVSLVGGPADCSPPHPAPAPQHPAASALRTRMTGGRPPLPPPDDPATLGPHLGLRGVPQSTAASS
UniProt Q92630: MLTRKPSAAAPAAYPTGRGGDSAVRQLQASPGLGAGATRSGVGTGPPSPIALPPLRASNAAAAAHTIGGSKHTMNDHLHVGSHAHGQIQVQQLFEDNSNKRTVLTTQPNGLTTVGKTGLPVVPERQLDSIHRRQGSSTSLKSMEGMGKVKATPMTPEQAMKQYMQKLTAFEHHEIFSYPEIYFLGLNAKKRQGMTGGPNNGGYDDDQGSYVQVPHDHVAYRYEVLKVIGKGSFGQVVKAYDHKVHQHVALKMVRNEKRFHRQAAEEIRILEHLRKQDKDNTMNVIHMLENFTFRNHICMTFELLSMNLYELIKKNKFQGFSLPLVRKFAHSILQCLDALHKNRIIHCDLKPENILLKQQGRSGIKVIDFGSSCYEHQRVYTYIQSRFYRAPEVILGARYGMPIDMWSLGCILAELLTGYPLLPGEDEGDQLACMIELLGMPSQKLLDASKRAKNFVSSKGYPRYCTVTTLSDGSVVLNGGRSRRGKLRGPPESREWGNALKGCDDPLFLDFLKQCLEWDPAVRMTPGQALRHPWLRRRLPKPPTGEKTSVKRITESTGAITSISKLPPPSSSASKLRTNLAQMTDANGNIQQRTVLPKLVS
UniProt P29317, whole entry: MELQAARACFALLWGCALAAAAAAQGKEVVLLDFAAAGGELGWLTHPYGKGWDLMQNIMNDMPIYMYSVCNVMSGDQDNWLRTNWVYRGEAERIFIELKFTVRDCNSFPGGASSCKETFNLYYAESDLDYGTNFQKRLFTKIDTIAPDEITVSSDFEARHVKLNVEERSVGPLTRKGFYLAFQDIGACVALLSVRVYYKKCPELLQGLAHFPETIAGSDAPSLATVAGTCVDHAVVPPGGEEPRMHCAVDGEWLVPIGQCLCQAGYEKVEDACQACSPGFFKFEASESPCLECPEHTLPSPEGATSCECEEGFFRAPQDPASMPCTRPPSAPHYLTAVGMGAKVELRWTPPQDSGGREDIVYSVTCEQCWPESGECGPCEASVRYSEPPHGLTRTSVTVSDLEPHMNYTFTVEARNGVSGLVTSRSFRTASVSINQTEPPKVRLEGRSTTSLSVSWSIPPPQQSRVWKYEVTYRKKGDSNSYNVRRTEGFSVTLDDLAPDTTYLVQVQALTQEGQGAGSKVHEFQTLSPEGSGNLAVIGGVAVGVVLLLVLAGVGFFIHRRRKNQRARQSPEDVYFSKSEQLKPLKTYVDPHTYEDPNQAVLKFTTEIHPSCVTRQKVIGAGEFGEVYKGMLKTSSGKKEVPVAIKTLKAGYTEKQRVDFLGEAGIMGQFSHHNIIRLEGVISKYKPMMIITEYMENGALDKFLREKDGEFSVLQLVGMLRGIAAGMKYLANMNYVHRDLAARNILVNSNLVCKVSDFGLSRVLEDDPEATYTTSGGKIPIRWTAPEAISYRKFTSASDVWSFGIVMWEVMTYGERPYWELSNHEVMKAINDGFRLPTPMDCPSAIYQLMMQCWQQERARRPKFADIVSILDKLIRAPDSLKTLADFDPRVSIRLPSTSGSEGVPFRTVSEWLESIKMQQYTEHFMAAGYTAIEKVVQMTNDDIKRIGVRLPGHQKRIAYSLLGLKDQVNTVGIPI

Measured: kinase-Nluc reporter destabilization hit call

CCn1c(-c2nonc2N)nc2cnc(Oc3cccc(NC(=O)c4ccc(OCCN5CCOCC5)cc4)c3)cc21 (10 µM)
inactive: [1] 0 | [2] 0 | [3] 0 | [4] 0 | [5] 0 | [6] 0 | [7] 0 | [8] 0 | [9] 0 | [10] 0 | [11] 0 | [12] 0 | [13] 0 | [14] 0 | [15] 0 | [16] 0 | [17] 0 | [18] 0 | [19] 0 | [20] 0

COCCOc1cnc(Sc2cc(C)c(-c3csc(NC(=O)c4ccncc4)n3)c(C)c2)cn1 [T-1101 (tosylate)] (2.5 µM)
inactive: [1] 0 | [2] 0 | [3] 0 | [4] 0 | [5] 0 | [6] 0 | [7] 0 | [8] 0 | [9] 0 | [10] 0 | [11] 0 | [12] 0 | [13] 0 | [14] 0 | [15] 0 | [16] 0 | [17] 0 | [18] 0 | [19] 0 | [20] 0

COCCO[C@@H]1[C@H](O)[C@@H](CO)O[C@H]1n1cnc2c(=O)[nH]c(N)nc21 [2′-O-(2-Methoxyethyl)guanosine] (10 µM)
inactive: [1] 0 | [2] 0 | [3] 0 | [4] 0 | [5] 0 | [6] 0 | [7] 0 | [8] 0 | [9] 0 | [10] 0 | [11] 0 | [12] 0 | [13] 0 | [14] 0 | [15] 0 | [16] 0 | [17] 0 | [18] 0 | [19] 0 | [20] 0

Fc1ccc(-c2nc(-c3ccccc3F)[nH]c2-c2ccncc2)cc1 (2.5 µM)
inactive: [1] 0 | [2] 0 | [3] 0 | [4] 0 | [5] 0 | [6] 0 | [7] 0 | [8] 0 | [9] 0 | [10] 0 | [11] 0 | [12] 0 | [13] 0 | [14] 0 | [15] 0 | [16] 0 | [17] 0 | [18] 0 | [19] 0 | [20] 0

COc1ccc([C@H]2c3[nH]c4ccc(Cl)cc4c3CCN2C(=O)Oc2ccc(Cl)cc2)cc1 (2.5 µM)
inactive: [1] 0 | [2] 0 | [3] 0 | [4] 0 | [5] 0 | [6] 0 | [7] 0 | [8] 0 | [9] 0 | [10] 0 | [11] 0 | [12] 0 | [13] 0 | [14] 0 | [15] 0 | [16] 0 | [17] 0 | [18] 0 | [19] 0 | [20] 0

C=C(C)C(=O)Nc1cccc(-c2ncnc3[nH]cc(C(=O)OCC)c23)c1 (10 µM)
inactive: [1] 0 | [2] 0 | [3] 0 | [4] 0 | [5] 0 | [6] 0 | [7] 0 | [8] 0 | [9] 0 | [10] 0 | [11] 0 | [12] 0 | [13] 0 | [14] 0 | [15] 0 | [16] 0 | [17] 0 | [18] 0 | [19] 0 | [20] 0

OCCNC1CCCc2c1[nH]c1ccc(-c3ccccc3)cc21 (stereo not given) (2.5 µM)
inactive: [1] 0 | [2] 0 | [3] 0 | [4] 0 | [5] 0 | [6] 0 | [7] 0 | [8] 0 | [9] 0 | [10] 0 | [11] 0 | [12] 0 | [13] 0 | [14] 0 | [15] 0 | [16] 0 | [17] 0 | [18] 0 | [19] 0 | [20] 0

COCCOc1ccc(-c2cn(-c3ccccc3)c3nc[nH]c(=O)c23)cc1 (10 µM)
inactive: [1] 0 | [2] 0 | [3] 0 | [4] 0 | [5] 0 | [6] 0 | [7] 0 | [8] 0 | [9] 0 | [10] 0 | [11] 0 | [12] 0 | [13] 0 | [14] 0 | [15] 0 | [16] 0 | [17] 0 | [18] 0 | [19] 0 | [20] 0

Cc1ccc(NC(=S)NNc2c([N+](=O)[O-])cc(C(F)(F)F)cc2[N+](=O)[O-])cc1Cl (10 µM)
inactive: [1] 0 | [2] 0 | [3] 0 | [4] 0 | [5] 0 | [6] 0 | [7] 0 | [8] 0 | [9] 0 | [10] 0 | [11] 0 | [12] 0 | [13] 0 | [14] 0 | [15] 0 | [16] 0 | [17] 0 | [18] 0 | [19] 0 | [20] 0

CS(=O)(=O)c1ccc(-c2cnc(N)c(C(=O)Nc3ccccc3)n2)cc1 (10 µM)
inactive: [1] 0 | [2] 0 | [3] 0 | [4] 0 | [5] 0 | [6] 0 | [7] 0 | [8] 0 | [9] 0 | [10] 0 | [11] 0 | [12] 0 | [13] 0 | [14] 0 | [15] 0 | [16] 0 | [17] 0 | [18] 0 | [19] 0 | [20] 0

COc1cc2ncnc(Nc3cccc(Cl)c3)c2cc1OC (10 µM)
inactive: [1] 0 | [2] 0 | [3] 0 | [4] 0 | [5] 0 | [6] 0 | [7] 0 | [8] 0 | [9] 0 | [10] 0 | [11] 0 | [12] 0 | [13] 0 | [14] 0 | [15] 0 | [16] 0 | [17] 0 | [18] 0 | [19] 0 | [20] 0

O=C(O)CCc1ccc(O)c(O)c1 [Dihydrocaffeic acid] (10 µM)
inactive: [1] 0 | [2] 0 | [3] 0 | [4] 0 | [5] 0 | [6] 0 | [7] 0 | [8] 0 | [9] 0 | [10] 0 | [11] 0 | [12] 0 | [13] 0 | [14] 0 | [15] 0 | [16] 0 | [17] 0 | [18] 0 | [19] 0 | [20] 0

O=C(NCCCNC(=O)Nc1cccc(C2=NCCN2)c1)Nc1cccc(C2=NCCN2)c1 [p32 Inhibitor M36] (10 µM)
inactive: [1] 0 | [2] 0 | [3] 0 | [4] 0 | [5] 0 | [6] 0 | [7] 0 | [8] 0 | [9] 0 | [10] 0 | [11] 0 | [12] 0 | [13] 0 | [14] 0 | [15] 0 | [16] 0 | [17] 0 | [18] 0 | [19] 0 | [20] 0

Nc1ncnc2c1c(-c1ccc(Oc3ccccc3)cc1)nn2C1CCNCC1 [N-piperidine Ibrutinib (hydrochloride)] (10 µM)
inactive: [1] 0 | [2] 0 | [3] 0 | [4] 0 | [5] 0 | [6] 0 | [7] 0 | [8] 0 | [9] 0 | [10] 0 | [11] 0 | [12] 0 | [13] 0 | [14] 0 | [15] 0 | [16] 0 | [17] 0 | [18] 0 | [19] 0 | [20] 0

Cc1ccc(Nc2cc(-c3cccc(N4C(=O)c5ccccc5C4=O)c3)ncn2)cc1NS(C)(=O)=O (10 µM)
inactive: [1] 0 | [2] 0 | [3] 0 | [4] 0 | [5] 0 | [6] 0 | [7] 0 | [8] 0 | [9] 0 | [10] 0 | [11] 0 | [12] 0 | [13] 0 | [14] 0 | [15] 0 | [16] 0 | [17] 0 | [18] 0 | [19] 0 | [20] 0

O=c1cc(O)cc(/C=C/c2ccc(O)c(O)c2)o1 [Hispidin] (10 µM)
inactive: [1] 0 | [2] 0 | [3] 0 | [4] 0 | [5] 0 | [6] 0 | [7] 0 | [8] 0 | [9] 0 | [10] 0 | [11] 0 | [12] 0 | [13] 0 | [14] 0 | [15] 0 | [16] 0 | [17] 0 | [18] 0 | [19] 0 | [20] 0

OC[C@H]1O[C@@H](Oc2cc3c(O)cc(O)cc3[o+]c2-c2cc(O)c(O)c(O)c2)[C@H](O)[C@@H](O)[C@@H]1O [Delphinidin 3-glucoside (chloride)] (10 µM)
inactive: [1] 0 | [2] 0 | [3] 0 | [4] 0 | [5] 0 | [6] 0 | [7] 0 | [8] 0 | [9] 0 | [10] 0 | [11] 0 | [12] 0 | [13] 0 | [14] 0 | [15] 0 | [16] 0 | [17] 0 | [18] 0 | [19] 0 | [20] 0

Arranged by length of the SMILES (smallest number first): 3 of the compounds above
O=C(NCCCNC(=O)Nc1cccc(C2=NCCN2)c1)Nc1cccc(C2=NCCN2)c1 [p32 Inhibitor M36] (10 µM)
inactive: [1] 0 | [2] 0 | [3] 0 | [4] 0 | [5] 0 | [6] 0 | [7] 0 | [8] 0 | [9] 0 | [10] 0 | [11] 0 | [12] 0 | [13] 0 | [14] 0 | [15] 0 | [16] 0 | [17] 0 | [18] 0 | [19] 0 | [20] 0

Cc1ccc(Nc2cc(-c3cccc(N4C(=O)c5ccccc5C4=O)c3)ncn2)cc1NS(C)(=O)=O (10 µM)
inactive: [1] 0 | [2] 0 | [3] 0 | [4] 0 | [5] 0 | [6] 0 | [7] 0 | [8] 0 | [9] 0 | [10] 0 | [11] 0 | [12] 0 | [13] 0 | [14] 0 | [15] 0 | [16] 0 | [17] 0 | [18] 0 | [19] 0 | [20] 0

OC[C@H]1O[C@@H](Oc2cc3c(O)cc(O)cc3[o+]c2-c2cc(O)c(O)c(O)c2)[C@H](O)[C@@H](O)[C@@H]1O [Delphinidin 3-glucoside (chloride)] (10 µM)
inactive: [1] 0 | [2] 0 | [3] 0 | [4] 0 | [5] 0 | [6] 0 | [7] 0 | [8] 0 | [9] 0 | [10] 0 | [11] 0 | [12] 0 | [13] 0 | [14] 0 | [15] 0 | [16] 0 | [17] 0 | [18] 0 | [19] 0 | [20] 0
